These are yes or no findings as the source states them, for the method shown. In cells and extracts the contact can be indirect. Some results given as binding are weak or reduced against the parent protein; the word gives no strength. For some of these results: Sequences can lack the tags named with a protein. Values belong to the binder of their own block, whether it stands above or below them.
Key:
[1] = biological target: T1, ORC2 (human (endogenous in HEK293, K562 and HeLa)) (UniProt Q13416); assay: proximity ligation
T1 sequence: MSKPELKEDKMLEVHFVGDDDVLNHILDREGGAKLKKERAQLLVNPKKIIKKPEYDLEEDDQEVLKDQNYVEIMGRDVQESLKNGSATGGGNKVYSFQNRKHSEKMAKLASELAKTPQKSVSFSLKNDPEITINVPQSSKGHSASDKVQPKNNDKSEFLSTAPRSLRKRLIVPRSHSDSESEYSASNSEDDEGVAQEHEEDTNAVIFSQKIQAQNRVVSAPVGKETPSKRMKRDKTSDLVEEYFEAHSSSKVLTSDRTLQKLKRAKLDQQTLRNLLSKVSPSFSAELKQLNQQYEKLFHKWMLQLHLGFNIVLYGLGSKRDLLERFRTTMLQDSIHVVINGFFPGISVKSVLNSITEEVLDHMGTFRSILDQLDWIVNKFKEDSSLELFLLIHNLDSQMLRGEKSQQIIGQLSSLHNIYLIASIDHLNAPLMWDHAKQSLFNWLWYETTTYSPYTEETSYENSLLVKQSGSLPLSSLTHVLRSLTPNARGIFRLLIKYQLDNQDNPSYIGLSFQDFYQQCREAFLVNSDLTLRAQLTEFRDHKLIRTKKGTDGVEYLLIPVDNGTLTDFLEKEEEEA

[2] = biological target: T1, ORC2 (human (endogenous in HEK293, K562 and HeLa)); assay: co-IP
[3] = biological target: T2, GNL3/nucleostemin (human (endogenous in K562 and HeLa S3)) (UniProt Q9BVP2); assay: co-IP
T2 sequence: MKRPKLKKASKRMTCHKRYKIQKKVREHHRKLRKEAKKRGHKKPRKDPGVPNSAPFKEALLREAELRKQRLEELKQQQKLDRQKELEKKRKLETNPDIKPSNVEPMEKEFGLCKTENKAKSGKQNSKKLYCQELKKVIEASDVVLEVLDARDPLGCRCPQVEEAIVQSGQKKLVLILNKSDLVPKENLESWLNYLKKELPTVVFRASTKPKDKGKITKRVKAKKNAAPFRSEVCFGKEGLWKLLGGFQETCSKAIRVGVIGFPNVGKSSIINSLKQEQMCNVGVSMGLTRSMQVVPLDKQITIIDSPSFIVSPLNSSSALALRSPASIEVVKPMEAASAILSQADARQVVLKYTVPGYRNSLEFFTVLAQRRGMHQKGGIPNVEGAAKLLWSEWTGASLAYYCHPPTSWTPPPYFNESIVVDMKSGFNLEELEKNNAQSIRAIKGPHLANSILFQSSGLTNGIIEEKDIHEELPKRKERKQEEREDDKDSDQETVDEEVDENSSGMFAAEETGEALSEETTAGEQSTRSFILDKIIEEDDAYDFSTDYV

- binding [1]: binds
- binding [2]: binds
B1: GNL3/nucleostemin (protein, UniProt Q9BVP2 1-549)
chain: T2 sequence

- binding [1]: binds
B2: GNL3-WT tagged with FLAG (protein, UniProt Q9BVP2 1-549)
chain: T2 sequence

- binding [3]: binds
B3: ORC2 (protein, UniProt Q13416 1-577)
chain: T1 sequence

From publication doi:10.1101/2022.10.27.514025
